Reference: PubChem BioAssay AID686938 (Drosophila RNAi Screening Center, 2013)
The screen tested about 23,000 reagents; shown is a random part of those with a known target gene and a result. Over the whole deposit, 75 (0.33%) are marked active. 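Raw plate signals without normalisation; calls rest on plate z-scores that were not deposited; ratio present for only 364 wells.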 The numbers tell different reagents against one gene apart. Names joined by + are all predicted targets of the reagent. Not given: the dose of the treatment.

Test: 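Fly genes required for calcium entry once internal stores are emptied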 (primary screen)
Cell system: Drosophila S2R+ cells
Reagent: long dsRNA against Drosophila genes, about 0.25 µg dsRNA per well, roughly 10,000 cells
Duration: 5 days of knock-down before the calcium assay
Challenge: thapsigargin (SERCA pump blocker) to empty calcium stores; entry signal taken 4 min after adding it
Measured: 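Duplicate raw fluo-4 intensities per well from a plate reader, at rest and four minutes after thapsigargin emptied calcium stores; entry-to-rest ratio filled for only some wells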
Reading the numbers: calcium entry signal: higher = stronger calcium signal after store depletion; resting calcium signal: higher = higher resting calcium signal
Rule for the call: 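Called when the plate z-score of the entry-to-rest ratio, mean of duplicates, falls below −3; wells with low overall dye signal (Fmax z below −2) or more than five off-targets excluded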
Meaning of the calls: active = strongly reduced calcium entry; inactive = no strong reduction

target | reagent no. | calcium entry signal, replicate 1 (fluorescence units) | calcium entry signal, replicate 2 (fluorescence units) | resting calcium signal, replicate 1 (fluorescence units) | resting calcium signal, replicate 2 (fluorescence units) | Call
CG7806 | 1 | 5.12e7 | – | 2.57e7 | – | inactive
CG14823 | 1 | 4.61e7 | 2.78e7 | 3.12e7 | 1.30e7 | inactive
Prp31 | 1 | 2.27e7 | 3.11e7 | 1.31e7 | 2.36e7 | inactive
CG5986 | 1 | 4.27e7 | 3.20e7 | 2.01e7 | 1.50e7 | inactive
Chc | 1 | 3.90e7 | 4.27e7 | 1.88e7 | 1.96e7 | inactive
CG18789 | 1 | 3.26e7 | 2.53e7 | 1.51e7 | 1.13e7 | inactive
CG7824 | 1 | 3.85e7 | 5.10e7 | 2.03e7 | 2.14e7 | inactive
Odc2 | 1 | 4.06e7 | 4.12e7 | 1.98e7 | 1.79e7 | inactive
CG43333 | 1 | 4.88e7 | 3.54e7 | 2.19e7 | 1.78e7 | inactive
CG43333 | 2 | 2.58e7 | 2.90e7 | 1.14e7 | 1.10e7 | inactive
CG34168 | 1 | 5.27e7 | 3.30e7 | 2.38e7 | 1.65e7 | inactive
CG17721 | 1 | 3.04e7 | 2.80e7 | 1.52e7 | 1.40e7 | inactive
kni | 1 | 3.11e7 | 5.71e7 | 1.49e7 | 2.33e7 | inactive
kni | 2 | 4.72e7 | 4.38e7 | 2.41e7 | 1.81e7 | inactive
Ctl2 | 1 | 3.14e7 | 4.44e7 | 1.49e7 | 2.24e7 | inactive
Pi4KIIalpha | 1 | 2.78e7 | 3.12e7 | 1.28e7 | 1.48e7 | inactive
Pi4KIIalpha | 2 | 5.53e7 | 5.06e7 | 2.30e7 | 2.21e7 | inactive
CG32095 | 1 | 4.74e7 | 3.53e7 | 2.73e7 | 1.69e7 | inactive
CG11584 | 1 | 3.36e7 | 2.72e7 | 1.68e7 | 1.17e7 | inactive
BTBD9 | 1 | 3.35e7 | 4.41e7 | 1.57e7 | 2.10e7 | inactive
BTBD9 | 2 | 3.98e7 | 5.70e7 | 1.70e7 | 2.48e7 | inactive
CG33791 + CG18170 | 1 | 4.11e7 | 5.21e7 | 2.11e7 | 2.30e7 | inactive
CG33791 + CG18170 | 2 | 4.25e7 | 4.54e7 | 2.24e7 | 1.98e7 | inactive
CG17440 | 1 | 3.51e7 | 4.55e7 | 1.90e7 | 2.20e7 | inactive
Ag5r | 1 | 2.78e7 | 3.17e7 | 1.30e7 | 1.47e7 | inactive
Rac2 | 1 | 2.23e7 | 3.19e7 | 1.09e7 | 1.36e7 | inactive
fray | 1 | 3.89e7 | 4.69e7 | 5.88e7 | 2.09e7 | inactive
obst-F | 1 | 1.78e7 | 3.03e7 | 9.29e6 | 1.57e7 | inactive
Ser | 1 | 4.11e7 | 5.94e7 | 2.03e7 | 2.39e7 | inactive
Gr39b | 1 | 2.02e7 | 3.72e7 | 1.09e7 | 1.81e7 | inactive
CG9259 | 1 | 5.12e7 | 4.43e7 | 2.60e7 | 1.95e7 | inactive

Targets listed so far whose target name begins with B or b (2):
target | reagent no. | calcium entry signal, replicate 1 (fluorescence units) | calcium entry signal, replicate 2 (fluorescence units) | resting calcium signal, replicate 1 (fluorescence units) | resting calcium signal, replicate 2 (fluorescence units) | Call
BTBD9 | 1 | 3.35e7 | 4.41e7 | 1.57e7 | 2.10e7 | inactive
BTBD9 | 2 | 3.98e7 | 5.70e7 | 1.70e7 | 2.48e7 | inactive

The list goes on:
target | reagent no. | calcium entry signal, replicate 1 (fluorescence units) | calcium entry signal, replicate 2 (fluorescence units) | resting calcium signal, replicate 1 (fluorescence units) | resting calcium signal, replicate 2 (fluorescence units) | Call
CG18294 + 825-Oak + CG32214 + 2 more | 1 | 3.42e7 | 4.54e7 | 1.66e7 | 2.23e7 | inactive
CG15337 | 1 | 3.15e7 | 4.42e7 | 1.51e7 | 2.01e7 | inactive
CG15337 | 2 | 4.45e7 | 4.27e7 | 2.64e7 | 2.00e7 | inactive
RpL27 | 1 | 1.17e7 | 1.06e7 | 9.03e6 | 6.87e6 | inactive
Srp14 | 1 | 3.91e7 | 4.11e7 | 5.65e7 | 1.79e7 | inactive
Nadk1b | 1 | 4.04e7 | 4.23e7 | 2.01e7 | 1.84e7 | inactive
Nadk1b | 2 | 2.49e7 | 3.03e7 | 1.23e7 | 1.50e7 | inactive
Nadk1b | 3 | 3.64e7 | 3.64e7 | 1.89e7 | 1.73e7 | inactive
Nox | 1 | 5.46e7 | 5.31e7 | 2.25e7 | 2.59e7 | inactive
Nox | 2 | 6.10e7 | 4.93e7 | 2.30e7 | 2.21e7 | inactive
Elp4 | 1 | 1.95e7 | 2.23e7 | 1.09e7 | 1.12e7 | inactive
LRP1 | 1 | 3.17e7 | 3.82e7 | 1.54e7 | 1.77e7 | inactive
ocm | 1 | 2.30e7 | – | 1.25e7 | – | inactive
CG32720 | 1 | 3.89e7 | 3.14e7 | 1.92e7 | 1.50e7 | inactive
CG4218 | 1 | 5.12e7 | 3.17e7 | 2.29e7 | 1.50e7 | inactive
CG5687 | 1 | 4.30e7 | 4.04e7 | 1.92e7 | 2.06e7 | inactive
Su(var)2-HP2 | 1 | 3.75e7 | 4.59e7 | 1.73e7 | 2.08e7 | inactive
Gld2 | 1 | 2.96e7 | 3.49e7 | 1.83e7 | 2.08e7 | inactive
Gld2 | 2 | 3.04e7 | 3.30e7 | 1.55e7 | 1.55e7 | inactive
hoka | 1 | 3.34e7 | 7.68e7 | 1.49e7 | 2.78e7 | inactive
Osi2 | 1 | 4.01e7 | 3.75e7 | 1.99e7 | 1.69e7 | inactive
CG18135 | 1 | 4.31e7 | 5.16e7 | 2.09e7 | 3.25e7 | inactive
Syx16 | 1 | 2.62e7 | 3.15e7 | 1.33e7 | 1.45e7 | inactive
Tet | 1 | 4.29e7 | 4.14e7 | 2.32e7 | 1.94e7 | inactive
Tet | 2 | 4.73e7 | 4.04e7 | 2.46e7 | 1.82e7 | inactive
Tet | 3 | 3.94e7 | 3.95e7 | 1.94e7 | 1.79e7 | inactive
Hydr2 | 1 | 4.11e7 | – | 2.52e7 | – | inactive
